No constants are given. Whether binding was seen depends on the method and setting. Some entries that bind do so weakly or less than the wild type.
Target: UPK-G1 fusion protein (121 amino acid extracellular region of human UPK-Ib fused to the human IgG1 Fc region) (human)
Assay: ELISA on UPK1-Fc (Figure 3B)

binding | Substance
binds | chimeric 1G9 (human IgG1 wild type Fc) (from UniProt P01857 1-330; P01834 1-107) (antibody)
binds | chimeric 5H9 (human IgG1 wild type Fc) (from UniProt P01857 1-330; P01834 1-107) (antibody)

Source: WO2008118324A2
